Results deposited as PubChem BioAssay AID1224830 (NIAID, 2016).
Shown is a random part of about 18,000 reagents tested. Over the whole deposit, about 2,900 (16%) got an active call. 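Calls are made per well; low scores hint the gene aids the LPS response, high scores that it dampens it.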 Repeated entries: four replicate wells of each siRNA pool.

Screen: 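Genes whose knock-down alters the TNF-alpha reporter response to LPS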 (primary screen)
Cells: human THP-1 monocytic leukaemia cells, TNF dual-luciferase reporter clone, PMA-differentiated to macrophage-like cells
Reagent: siRNA pool against human genes, 50 nM
Duration: LPS for 4 h, given about 3 days after siRNA transfection
Conditions: bacterial LPS (TLR4 ligand), 10 ng/ml
Detection: 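TNF firefly reporter luminescence divided by renilla, normalised to the plate median, then turned into a robust z-score for each replicate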
Scale: TNF reporter robust z-score: higher = stronger TNF reporter response to LPS
Active means: 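Each well counts as active if its z-score is over 2.8 or under -1.5; controls are left without a call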

gene	TNF reporter robust z-score	activity call
RBM25 (RNA binding motif protein 25)	0.58	inactive
RBM25 (RNA binding motif protein 25)	-0.12	inactive
RBM25 (RNA binding motif protein 25)	0.6	inactive
RBM25 (RNA binding motif protein 25)	0.82	inactive
GRAMD1A (GRAM domain containing 1A)	0.86	inactive
GRAMD1A (GRAM domain containing 1A)	0.49	inactive
GRAMD1A (GRAM domain containing 1A)	-0.91	inactive
GRAMD1A (GRAM domain containing 1A)	-0.58	inactive
GRAMD1A (GRAM domain containing 1A)	1.4	inactive
GRAMD1A (GRAM domain containing 1A)	1.37	inactive
GRAMD1A (GRAM domain containing 1A)	0.8	inactive
GRAMD1A (GRAM domain containing 1A)	2.29	inactive
SLC10A4	-0.36	inactive
SLC10A4	0.22	inactive
SLC10A4	1.22	inactive
SLC10A4	0.84	inactive
SMIM14 (small integral membrane protein 14)	-0.76	inactive
SMIM14 (small integral membrane protein 14)	-0.7	inactive
SMIM14 (small integral membrane protein 14)	-0.69	inactive
SMIM14 (small integral membrane protein 14)	0.3	inactive
ERLIN2 (ER lipid raft associated 2)	1.46	inactive
ERLIN2 (ER lipid raft associated 2)	0.37	inactive
ERLIN2 (ER lipid raft associated 2)	0.38	inactive
ERLIN2 (ER lipid raft associated 2)	-0.13	inactive
PTTG1	0.26	inactive
PTTG1	0.42	inactive
PTTG1	0.02	inactive
PTTG1	1.37	inactive
RFNG (RFNG O-fucosylpeptide 3-beta-N-acetylglucosaminyltransferase)	-0.35	inactive
RFNG (RFNG O-fucosylpeptide 3-beta-N-acetylglucosaminyltransferase)	0.56	inactive
RFNG (RFNG O-fucosylpeptide 3-beta-N-acetylglucosaminyltransferase)	0.54	inactive
RFNG (RFNG O-fucosylpeptide 3-beta-N-acetylglucosaminyltransferase)	1.19	inactive
NKAP (NFKB activating protein)	-0.72	inactive
NKAP (NFKB activating protein)	-0.82	inactive
NKAP (NFKB activating protein)	-0.35	inactive
H3C11 (H3 clustered histone 11)	0.22	inactive
H3C11 (H3 clustered histone 11)	-0.35	inactive
H3C11 (H3 clustered histone 11)	1.69	inactive
H3C11 (H3 clustered histone 11)	2.27	inactive
PEAK3 (PEAK family member 3)	-0.22	inactive
PEAK3 (PEAK family member 3)	0.82	inactive
PEAK3 (PEAK family member 3)	-0.74	inactive
PEAK3 (PEAK family member 3)	-0.65	inactive
OR2W5	-0.24	inactive
OR2W5	-0.37	inactive
OR2W5	-0.56	inactive
OR2W5	-1.72	active
CEP162 (centrosomal protein 162)	0	inactive
CEP162 (centrosomal protein 162)	0.06	inactive
CEP162 (centrosomal protein 162)	0.18	inactive
CEP162 (centrosomal protein 162)	-0.48	inactive
PEA15 (proliferation and apoptosis adaptor protein 15)	-1.54	active
PEA15 (proliferation and apoptosis adaptor protein 15)	-1.35	inactive
PEA15 (proliferation and apoptosis adaptor protein 15)	-1.14	inactive
PEA15 (proliferation and apoptosis adaptor protein 15)	-0.73	inactive
HMGB1 (high mobility group box 1)	-0.55	inactive
HMGB1 (high mobility group box 1)	-0.93	inactive
HMGB1 (high mobility group box 1)	-1.04	inactive
HMGB1 (high mobility group box 1)	0.16	inactive

Continued (5 carried over from the part before).
gene	TNF reporter robust z-score	activity call
PEA15 (proliferation and apoptosis adaptor protein 15)	-0.73	inactive
HMGB1 (high mobility group box 1)	-0.55	inactive
HMGB1 (high mobility group box 1)	-0.93	inactive
HMGB1 (high mobility group box 1)	-1.04	inactive
HMGB1 (high mobility group box 1)	0.16	inactive
MXD3 (MAX dimerization protein 3)	0.94	inactive
MXD3 (MAX dimerization protein 3)	3.04	active
MXD3 (MAX dimerization protein 3)	3.11	active
MXD3 (MAX dimerization protein 3)	4.3	active
TGM6 (transglutaminase 6)	-0.33	inactive
TGM6 (transglutaminase 6)	-0.82	inactive
TGM6 (transglutaminase 6)	0.15	inactive
TGM6 (transglutaminase 6)	-0.34	inactive
GABRB3 (gamma-aminobutyric acid type A receptor subunit beta3)	-1.09	inactive
GABRB3 (gamma-aminobutyric acid type A receptor subunit beta3)	-0.87	inactive
GABRB3 (gamma-aminobutyric acid type A receptor subunit beta3)	-0.99	inactive
GABRB3 (gamma-aminobutyric acid type A receptor subunit beta3)	-0.6	inactive
ZDHHC22 (zDHHC palmitoyltransferase 22)	-1.45	inactive
ZDHHC22 (zDHHC palmitoyltransferase 22)	-1.17	inactive
ZDHHC22 (zDHHC palmitoyltransferase 22)	-1.19	inactive
ZDHHC22 (zDHHC palmitoyltransferase 22)	-1.3	inactive
GPRC5B (G protein-coupled receptor class C group 5 member B)	-0.62	inactive
GPRC5B (G protein-coupled receptor class C group 5 member B)	-0.03	inactive
GPRC5B (G protein-coupled receptor class C group 5 member B)	-1.2	inactive
GPRC5B (G protein-coupled receptor class C group 5 member B)	-0.55	inactive
VPS37D (VPS37D subunit of ESCRT-I)	-0.25	inactive
VPS37D (VPS37D subunit of ESCRT-I)	1.88	inactive
VPS37D (VPS37D subunit of ESCRT-I)	-0.78	inactive
VPS37D (VPS37D subunit of ESCRT-I)	0.26	inactive
OR10G8 (olfactory receptor family 10 subfamily G member 8)	0.09	inactive
OR10G8 (olfactory receptor family 10 subfamily G member 8)	0.39	inactive
OR10G8 (olfactory receptor family 10 subfamily G member 8)	-0.17	inactive
OR10G8 (olfactory receptor family 10 subfamily G member 8)	-0.07	inactive
OR13F1 (olfactory receptor family 13 subfamily F member 1)	1.33	inactive
OR13F1 (olfactory receptor family 13 subfamily F member 1)	2.84	active
OR13F1 (olfactory receptor family 13 subfamily F member 1)	-1.43	inactive
OR13F1 (olfactory receptor family 13 subfamily F member 1)	0.03	inactive
COPB2 (coat protein complex I subunit beta 2)	-0.74	inactive
COPB2 (coat protein complex I subunit beta 2)	-0.16	inactive
COPB2 (coat protein complex I subunit beta 2)	-0.65	inactive
COPB2 (coat protein complex I subunit beta 2)	-0.3	inactive
WDFY1 (WD repeat and FYVE domain containing 1)	-0.06	inactive
WDFY1 (WD repeat and FYVE domain containing 1)	-0.24	inactive
WDFY1 (WD repeat and FYVE domain containing 1)	-0.21	inactive
WDFY1 (WD repeat and FYVE domain containing 1)	-0.54	inactive
ACAA1 (acetyl-CoA acyltransferase 1)	-0.07	inactive
ACAA1 (acetyl-CoA acyltransferase 1)	0.62	inactive
ACAA1 (acetyl-CoA acyltransferase 1)	-0.13	inactive
ACAA1 (acetyl-CoA acyltransferase 1)	1.65	inactive
HBB (hemoglobin subunit beta)	-1	inactive
HBB (hemoglobin subunit beta)	-0.85	inactive
HBB (hemoglobin subunit beta)	-1.08	inactive
HBB (hemoglobin subunit beta)	-0.63	inactive
ZBTB22 (zinc finger and BTB domain containing 22)	-0.56	inactive
ZBTB22 (zinc finger and BTB domain containing 22)	0.27	inactive
ZBTB22 (zinc finger and BTB domain containing 22)	-0.7	inactive
ZBTB22 (zinc finger and BTB domain containing 22)	-0.12	inactive
